PubChem BioAssay AID1224826 | NIAID | 2016

- Screen: 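Genes that change LPS-induced Tnf promoter activity in mouse macrophages when knocked down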 (primary screen)
- Cells: RAW264.7 G9 macrophages from mouse bearing reporters for p65 (GFP) and the Tnf promoter (mCherry)
- Reagents: siRNA pool against mouse genes, 100 nM
- Time to read-out: 16 h of LPS stimulation, after 2 days of siRNA transfection
- Challenge: bacterial lipopolysaccharide (Salmonella minnesota R595), 10 ng/ml
- Measurement: 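Nuclear mCherry signal of the Tnf promoter reporter measured by imaging after background removal, scaled to each plate median and turned into robust z-scores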
- Reading the numbers: Tnf reporter robust z-score: higher = stronger Tnf promoter reporter signal after LPS
- Rule for the call: 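a well counts as active at a score of -1.3 or below (Tlr4 knock-down control median) or above 3 (raised signal); controls and wells holding fewer than 50 cells are excluded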
- Calls: active = Tnf reporter clearly lowered or raised; inactive = no clear change in Tnf reporter
This is a random part of about 17,000 reagents tested. About 1,110 of all reagents (6.6%) were called active. 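Active means lowered or raised reporter signal; replicate intensities are raw and not normalised per plate.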 Reagents against one gene are numbered here. Not all columns of the deposit are shown.

gene knocked down	reagent	Tnf reporter robust z-score	fewer than 50 cells in well	Call
Kcnj9	1	-0.23	enough cells in well	inactive
Sephs2	1	0.55	enough cells in well	inactive
H1f4	1	0.5	enough cells in well	inactive
Dpep2	1	-0.21	enough cells in well	inactive
Ska2	1	-0.27	enough cells in well	inactive
Arfgap2	1	-0.23	enough cells in well	inactive
Rheb	1	-0.12	enough cells in well	inactive
Fbxo11	1	-0.7	enough cells in well	inactive
Thoc1	1	-1.1	enough cells in well	inactive
Lax1	1	0.3	enough cells in well	inactive
Qdpr	1	-0.13	enough cells in well	inactive
Sdc1	1	0.9	enough cells in well	inactive
Or13a1	1	-0.4	enough cells in well	inactive
F5	1	-0.08	enough cells in well	inactive
Tpst2	1		fewer than 50 cells per well; well left out of calls	inactive
1700052K11Rik	1	4.77	enough cells in well	active
Npy6r	1	-0.6	enough cells in well	inactive
Ech1	1	-0.35	enough cells in well	inactive
Jmjd6	1	-0.47	enough cells in well	inactive
Ehd3	1	-0.8	enough cells in well	inactive
Adrb3	1	0.67	enough cells in well	inactive
Ppp2r2c	1		fewer than 50 cells per well; well left out of calls	inactive

Next part, starting with the last 5 of the part before.
gene knocked down	reagent	Tnf reporter robust z-score	fewer than 50 cells in well	Call
Ech1	1	-0.35	enough cells in well	inactive
Jmjd6	1	-0.47	enough cells in well	inactive
Ehd3	1	-0.8	enough cells in well	inactive
Adrb3	1	0.67	enough cells in well	inactive
Ppp2r2c	1		fewer than 50 cells per well; well left out of calls	inactive
Leap2	1	0.49	enough cells in well	inactive
Sfswap	1	1.02	enough cells in well	inactive
Tmem161b	1		fewer than 50 cells per well; well left out of calls	inactive
Fndc3a	1	-0.2	enough cells in well	inactive
Vmn2r129	1	0.55	enough cells in well	inactive
Vmn2r129	2	-0.24	enough cells in well	inactive
Itgax	1	-0.4	enough cells in well	inactive
Atp9a	1	-0.99	enough cells in well	inactive
Golgb1	1	0.34	enough cells in well	inactive
Smug1	1		fewer than 50 cells per well; well left out of calls	inactive
Ndufa3	1	-0.8	enough cells in well	inactive
Cuedc1	1	-0.28	enough cells in well	inactive
Vac14	1		fewer than 50 cells per well; well left out of calls	inactive
Chkb	1	-1.47	enough cells in well	active
Cmtr2	1	0.56	enough cells in well	inactive
Dnajc19	1	0.81	enough cells in well	inactive
Rapsn	1	-0.81	enough cells in well	inactive
Vmn1r59	1	1.49	enough cells in well	inactive
